# For at least one entry, the source does not settle the construct or the ends of the probe. At least one verdict rests on a figure or table, not on a statement of the authors. Protein sequences can lack the tags named with them.
# Biological target: T1, MatA (Dictyostelium discoideum) (UniProt Q54HW9)
# T1 sequence (looked up, limits assumed): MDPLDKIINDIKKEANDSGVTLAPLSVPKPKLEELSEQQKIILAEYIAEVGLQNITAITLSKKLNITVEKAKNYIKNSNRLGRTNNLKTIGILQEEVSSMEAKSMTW
# Assay: NMR
# Conditions: 80 uM DNA, 20 uM MatA, CSPs grow with DNA length, NMR: 25 mM phosphate pH 6, 50 mM NaCl, 50 uM EDTA, 5% D2O, 25 C (MatB S71A at 1 C), recombinant protein
Sequence,binding result,binding result (shortest DNA)
CCGAAACGTTTGGTGGCGGGA (double strand) [21-bp DNA],binds,
CGTTTGGTGGCGGGA (double strand) [15-bp DNA],,binds
